{"source": "PubChem BioAssay AID1259425 | University of Nebraska Medical Center – 2018", "screen": "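Compare each knockdown with KSR1 silencing using changes in marker transcripts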 (primary screen)", "system": "HCT116 human colon cancer cells", "knock-down reagent": "siRNA pool against human genes, 50 nM siRNA", "detection": "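After 50 nM siRNA pool, branched-DNA assay measures six marker transcripts per well, minus blank, normalised to the geometric mean of two housekeeping transcripts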", "direction": "BNIP3L mRNA: higher = more BNIP3L transcript after knockdown; NDRG1 mRNA: higher = more NDRG1 transcript after knockdown", "note": "Here is an unselected part of about 14,000 reagents tested. Not all columns of the deposit are shown. Not given: the time to read-out."}
The opening 3 records, to show the layout:
{"gene symbol": "CRYL1 (GeneID 51084)", "BNIP3L mRNA, set 1": 0.115, "NDRG1 mRNA, set 1": 0.521}
{"gene symbol": "TGFBI (GeneID 7045)", "BNIP3L mRNA, set 1": 0.174, "NDRG1 mRNA, set 1": 0.149}
{"gene symbol": "NMRK2 (GeneID 27231)", "BNIP3L mRNA, set 1": 0.178, "NDRG1 mRNA, set 1": 0.387}

The listing, repeating the preview:
{"gene symbol": "CRYL1 (GeneID 51084)", "BNIP3L mRNA, set 1": 0.115, "NDRG1 mRNA, set 1": 0.521}
{"gene symbol": "TGFBI (GeneID 7045)", "BNIP3L mRNA, set 1": 0.174, "NDRG1 mRNA, set 1": 0.149}
{"gene symbol": "NMRK2 (GeneID 27231)", "BNIP3L mRNA, set 1": 0.178, "NDRG1 mRNA, set 1": 0.387}
{"gene symbol": "CNOT2 (GeneID 4848)", "BNIP3L mRNA, set 1": 0.115, "NDRG1 mRNA, set 1": 0.187}
{"gene symbol": "DNA2 (GeneID 1763)", "BNIP3L mRNA, set 1": 0.126, "NDRG1 mRNA, set 1": 0.294}
{"gene symbol": "HEY1 (GeneID 23462)", "BNIP3L mRNA, set 1": 0.0511, "NDRG1 mRNA, set 1": 0.12}
{"gene symbol": "PTGS1 (GeneID 5742)", "BNIP3L mRNA, set 1": 0.0596, "NDRG1 mRNA, set 1": 0.0957}
{"gene symbol": "NGB (GeneID 58157)", "BNIP3L mRNA, set 1": 0.0674, "NDRG1 mRNA, set 1": 0.335}
{"gene symbol": "ACADVL (GeneID 37)", "BNIP3L mRNA, set 1": 0.0909, "NDRG1 mRNA, set 1": 0.217}
{"gene symbol": "TM7SF2 (GeneID 7108)", "BNIP3L mRNA, set 1": 0.0746, "NDRG1 mRNA, set 1": 0.11}
{"gene symbol": "RANBP3 (GeneID 8498)", "BNIP3L mRNA, set 1": 0.0794, "NDRG1 mRNA, set 1": 0.148}
{"gene symbol": "LRIG2 (GeneID 9860)", "BNIP3L mRNA, set 1": 0.111, "NDRG1 mRNA, set 1": 0.0728}
{"gene symbol": "CHMP2A (GeneID 27243)", "BNIP3L mRNA, set 1": 0.24, "NDRG1 mRNA, set 1": 0.73}
{"gene symbol": "CARHSP1 (GeneID 23589)", "BNIP3L mRNA, set 1": 0.0658, "NDRG1 mRNA, set 1": 0.335}
{"gene symbol": "COPA (GeneID 1314)", "BNIP3L mRNA, set 1": 0.52, "NDRG1 mRNA, set 1": 1.36}
{"gene symbol": "LMTK1 (GeneID 9625)", "BNIP3L mRNA, set 1": 0.0883, "NDRG1 mRNA, set 1": 0.0649}
{"gene symbol": "RMDN3 (GeneID 55177)", "BNIP3L mRNA, set 1": 0.0992, "NDRG1 mRNA, set 1": 0.295}
{"gene symbol": "NEDD4 (GeneID 4734)", "BNIP3L mRNA, set 1": 0.0745, "NDRG1 mRNA, set 1": 0.154}
{"gene symbol": "SYMPK (GeneID 8189)", "BNIP3L mRNA, set 1": 0.0686, "NDRG1 mRNA, set 1": 0.0764}
{"gene symbol": "ERBIN (GeneID 55914)", "BNIP3L mRNA, set 1": 0.0729, "NDRG1 mRNA, set 1": 0.102}
{"gene symbol": "TUBD1 (GeneID 51174)", "BNIP3L mRNA, set 1": 0.0441, "NDRG1 mRNA, set 1": 0.0907}
{"gene symbol": "KRT14 (GeneID 3861)", "BNIP3L mRNA, set 1": 0.102, "NDRG1 mRNA, set 1": 0.18}
{"gene symbol": "TSPAN7 (GeneID 7102)", "BNIP3L mRNA, set 1": 0.113, "NDRG1 mRNA, set 1": 0.168}
{"gene symbol": "EIF2AK1 (GeneID 27102)", "BNIP3L mRNA, set 1": 0.134, "NDRG1 mRNA, set 1": 0.0405}
{"gene symbol": "BIN3-IT1 (GeneID 80094)", "BNIP3L mRNA, set 1": 0.112, "NDRG1 mRNA, set 1": 0.119}
{"gene symbol": "MGLL (GeneID 11343)", "BNIP3L mRNA, set 1": 0.107, "NDRG1 mRNA, set 1": 0.104}
{"gene symbol": "CYP4F3 (GeneID 4051)", "BNIP3L mRNA, set 1": 0.135, "NDRG1 mRNA, set 1": 0.354}
{"gene symbol": "P4HTM (GeneID 54681)", "BNIP3L mRNA, set 1": 0.0748, "NDRG1 mRNA, set 1": 0.232}
